Source: the supplement of paper PMC6078165
The reference is the same well before dosing, and untreated signal decays as well.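 Labels refer to human fibroblasts, largely primary: uterine (C12385, HUF), lung (H6013), bone (Hs27A), adrenal (HADF), skin (WS1), plus mammary HMF and breast cancer-associated Hs343T. Cancer lines are basal-like or mesenchymal-like triple-negative breast cancer. The paper counts as hits responses shifting over 3x the replicate standard deviation. The tissue of the other fibroblasts is not given here.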

Tested on: MDAMB436
Assay: relative JC-1 red fluorescence (viability) vs pre-drug, coculture with fibroblast (fraction); higher = more viable cancer cells
Description: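 JC-1 labelled TNBC cells cocultured 1:1 (1,500 cells each) with CellTrace Violet stained primary or stromal fibroblasts in 384-well plates in FluoroBrite medium, treated with one of 42 anticancer drugs at 0.1, 1, 10 or 100 uM. JC-1 red fluorescence (mitochondrial integrity in cancer cells only) was read by plate reader every 8 h for 72 h. Values are normalised to each well's pre-drug value. The stock of one drug was tenfold lower, so its dose labels may be too high.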

CS(=O)(=O)CCNCc1ccc(-c2ccc3ncnc(Nc4ccc(OCc5cccc(F)c5)c(Cl)c4)c3c2)o1 [Lapatinib]
relative JC-1 red fluorescence
Conditions	8 h	16 h	24 h	32 h	40 h	48 h	56 h	64 h	72 h
0.1 µM, coculture fibroblast: C12385	0.824	0.75	0.701	0.636	0.585	0.56	0.543	0.526	0.518
0.1 µM, coculture fibroblast: H6013	0.8071	0.719	0.6669	0.6448	0.6224	0.627	0.6	0.58	0.54
0.1 µM, coculture fibroblast: H6019	0.746	0.643	0.6168	0.545	0.495	0.472	0.43	0.399	0.372
0.1 µM, coculture fibroblast: H6076	0.762	0.651	0.626	0.586	0.582	0.558	0.563	0.563	0.559
0.1 µM, coculture fibroblast: H6231	0.764	0.677	0.651	0.5805	0.5597	0.528	0.511	0.479	0.451
0.1 µM, coculture fibroblast: HADF	0.813	0.731	0.668	0.625	0.594	0.6	0.541	0.524	0.481
0.1 µM, coculture fibroblast: HCFa	0.786	0.71	0.662	0.637	0.612	0.621	0.561	0.5451	0.4861
0.1 µM, coculture fibroblast: HCPF	0.844	0.759	0.749	0.709	0.703	0.674	0.66	0.64	0.62
0.1 µM, coculture fibroblast: HHSteC	0.865	0.792	0.76	0.738	0.727	0.743	0.678	0.655	0.589
0.1 µM, coculture fibroblast: HMF	0.835	0.736	0.684	0.64	0.615	0.58	0.561	0.537	0.525
0.1 µM, coculture fibroblast: HPFa	0.873	0.807	0.764	0.711	0.684	0.691	0.611	0.57	0.496
0.1 µM, coculture fibroblast: HUF	0.854	0.744	0.711	0.637	0.575	0.548	0.522	0.506	0.489
0.1 µM, coculture fibroblast: Hs5	0.8324	0.743	0.698	0.637	0.608	0.567	0.553	0.517	0.498
0.1 µM, coculture fibroblast: Hs27A	0.826	0.759	0.699	0.681	0.647	0.675	0.582	0.557	0.49
0.1 µM, coculture fibroblast: Hs343T	0.771	0.678	0.639	0.602	0.571	0.542	0.522	0.509	0.499
0.1 µM, coculture fibroblast: WS1	0.81	0.728	0.6814	0.597	0.5475	0.5238	0.4969	0.466	0.447
1 µM, coculture fibroblast: C12385	0.826	0.776	0.746	0.669	0.633	0.605	0.58	0.561	0.548
1 µM, coculture fibroblast: H6013	0.854	0.836	0.82	0.811	0.807	0.824	0.788	0.769	0.719
1 µM, coculture fibroblast: H6019	0.806	0.809	0.828	0.77	0.752	0.752	0.728	0.709	0.682
1 µM, coculture fibroblast: H6076	0.788	0.762	0.78	0.758	0.733	0.717	0.733	0.727	0.72
1 µM, coculture fibroblast: H6231	0.782	0.681	0.742	0.6539	0.6323	0.604	0.595	0.58	0.558
1 µM, coculture fibroblast: HADF	0.8384	0.8437	0.817	0.78	0.7748	0.8005	0.734	0.7314	0.6753
1 µM, coculture fibroblast: HCFa	0.853	0.836	0.817	0.782	0.763	0.777	0.713	0.69	0.629
1 µM, coculture fibroblast: HCPF	0.825	0.774	0.772	0.712	0.677	0.638	0.607	0.584	0.549
1 µM, coculture fibroblast: HHSteC	0.859	0.852	0.825	0.779	0.77	0.774	0.698	0.673	0.61
1 µM, coculture fibroblast: HMF	0.868	0.8063	0.77773	0.7199	0.6899	0.6472	0.6323	0.603	0.573
1 µM, coculture fibroblast: HPFa	0.9423	0.8956	0.878	0.841	0.828	0.827	0.75	0.712	0.645
1 µM, coculture fibroblast: HUF	0.912	0.8313	0.807	0.737	0.675	0.643	0.614	0.592	0.577
1 µM, coculture fibroblast: Hs5	0.793	0.74	0.736	0.689	0.673	0.625	0.627	0.6	0.581
1 µM, coculture fibroblast: Hs27A	0.8905	0.849	0.864	0.844	0.826	0.878	0.798	0.793	0.725
1 µM, coculture fibroblast: Hs343T	0.831	0.745	0.734	0.697	0.6626	0.6304	0.6095	0.582	0.562
1 µM, coculture fibroblast: WS1	0.815	0.762	0.742	0.67	0.633	0.618	0.597	0.572	0.555
10 µM, coculture fibroblast: C12385	0.851	0.795	0.803	0.791	0.809	0.827	0.827	0.836	0.844
10 µM, coculture fibroblast: H6013	0.8232	0.78	0.804	0.856	0.853	0.875	0.892	0.904	0.913
10 µM, coculture fibroblast: H6019	0.852	0.87	0.905	0.915	0.939	0.891	0.942	0.914	0.883
10 µM, coculture fibroblast: H6076	0.8482	0.74827	0.7	0.689	0.694	0.709	0.722	0.733	0.716
10 µM, coculture fibroblast: H6231	0.844	0.758	0.7364	0.698	0.672	0.657	0.633	0.605	0.583
10 µM, coculture fibroblast: HADF	0.8083	0.779	0.792	0.821	0.834	0.859	0.854	0.86	0.865
10 µM, coculture fibroblast: HCFa	0.855	0.826	0.84	0.867	0.89	0.877	0.759	0.788	0.848
10 µM, coculture fibroblast: HCPF	0.877	0.806	0.774	0.754	0.755	0.759	0.761	0.765	0.779
10 µM, coculture fibroblast: HHSteC	0.815	0.838	0.887	0.808	0.877	0.807	0.904	0.803	0.901
10 µM, coculture fibroblast: HMF	0.919	0.851	0.791	0.775	0.761	0.759	0.747	0.746	0.742
10 µM, coculture fibroblast: HPFa	0.887	0.8804	0.9032	0.9294	0.97	0.98	0.977	0.843	0.949
10 µM, coculture fibroblast: HUF	0.893	0.821	0.818	0.8	0.807	0.81	0.813	0.83	0.829
10 µM, coculture fibroblast: Hs5	0.932	0.8845	0.893	0.884	0.892	0.9006	0.924	0.9272	0.9587
10 µM, coculture fibroblast: Hs27A	0.789	0.749	0.736	0.765	0.751	0.804	0.765	0.765	0.749
10 µM, coculture fibroblast: Hs343T	0.873	0.783	0.735	0.711	0.7	0.704	0.693	0.712	0.723
10 µM, coculture fibroblast: WS1	0.835	0.762	0.769	0.749	0.745	0.761	0.758	0.757	0.757
100 µM, coculture fibroblast: C12385	0.872	0.836	0.77204	0.721	0.688	0.738	0.662	0.709	0.65
100 µM, coculture fibroblast: H6013	0.9056	0.848	0.841	0.831	0.836	0.859	0.8377	0.818	0.77
100 µM, coculture fibroblast: H6019	0.801	0.778	0.757	0.693	0.6638	0.6452	0.603	0.571	0.537
100 µM, coculture fibroblast: H6076	0.973	0.904	0.873	0.832	0.773	0.727	0.7	0.665	0.642
100 µM, coculture fibroblast: H6231	0.827	0.859	0.774	0.881	0.816	0.85	0.836	0.809	0.832
100 µM, coculture fibroblast: HADF	0.877	0.855	0.85	0.829	0.825	0.843	0.781	0.774	0.719
100 µM, coculture fibroblast: HCFa	0.90724	0.912	0.81	0.798	0.708	0.755	0.66	0.726	0.704
100 µM, coculture fibroblast: HCPF	0.9328	0.8888	0.876	0.8481	0.766	0.847	0.793	0.863	0.8307
100 µM, coculture fibroblast: HHSteC	0.845	0.837	0.827	0.79	0.78	0.787	0.731	0.702	0.644
100 µM, coculture fibroblast: HMF	0.856	0.781	0.859	0.828	0.793	0.7063	0.721	0.773	0.738
100 µM, coculture fibroblast: HPFa	0.926	0.874	0.855	0.794	0.782	0.781	0.694	0.66	0.579
100 µM, coculture fibroblast: HUF	0.887	0.808	0.806	0.736	0.683	0.653	0.628	0.609	0.603
100 µM, coculture fibroblast: Hs5	0.874	0.786	0.764	0.715	0.691	0.662	0.645	0.64	0.619
100 µM, coculture fibroblast: Hs27A	0.8919	0.8069	0.801	0.7649	0.723	0.765	0.67	0.65	0.575
100 µM, coculture fibroblast: Hs343T	0.884	0.911	0.888	0.872	0.849	0.829	0.807	0.797	0.803
100 µM, coculture fibroblast: WS1	0.812	0.755	0.7453	0.6717	0.62177	0.5921	0.5755	0.541	0.5192
